# Strings that start with PEPTIDE1 are HELM notation: dots part the residues, brackets hold end groups and non-standard residues.
# Assay: peptide synthesis
# Conditions: conjugation step, hydrochloride salt
row,Substance,conjugation yield
1,"PEPTIDE1{[DMTD].[Orn4OH5EDA].T.[Hyp].[hTyr34diOH-NBD].[Orn3OH].[Pro3OH]}$PEPTIDE1,PEPTIDE1,7:R2-2:R3$$$V2.0",52%
2,"PEPTIDE1{[DMTD].[Orn4OH5EDA].T.[Hyp].[hTyr34diOH-TMR].[Orn3OH].[Pro3OH]}$PEPTIDE1,PEPTIDE1,7:R2-2:R3$$$V2.0",95%

# Same assay, conditions: conjugation step, hydrochloride salt (probes 1 and 2)
row,Substance,conjugation yield
1,"PEPTIDE1{[TerphCO].[Orn4OH5Chol].T.[Hyp].[hTyr34diOH-NBD].T.[Pro3OH4Me]}$PEPTIDE1,PEPTIDE1,7:R2-2:R3$$$V2.0",37%
2,"PEPTIDE1{[TerphCO].[Orn4OH5Chol].T.[Hyp].[hTyr34diOH-TMR].T.[Pro3OH4Me]}$PEPTIDE1,PEPTIDE1,7:R2-2:R3$$$V2.0",68%
3,"PEPTIDE1{[TerphCO].[Orn4OH5O-NBD].T.[Hyp].[hTyr34diOH].T.[Pro3OH4Me]}$PEPTIDE1,PEPTIDE1,7:R2-2:R3$$$V2.0",55%
4,"PEPTIDE1{[TerphCO].[Orn4OH5O-TMR].T.[Hyp].[hTyr34diOH].T.[Pro3OH4Me]}$PEPTIDE1,PEPTIDE1,7:R2-2:R3$$$V2.0",73%
